No constants are given. Whether binding was seen depends on the method and setting. In cells and extracts the contact can be indirect. For some assays here: Where a sequence is shown, tags or fusion partners need not be part of it.
Tests used:
[1] = target: T1, FLAG-tagged RIG-I (wild type) (UniProt O95786); assay: co-IP
T1 sequence: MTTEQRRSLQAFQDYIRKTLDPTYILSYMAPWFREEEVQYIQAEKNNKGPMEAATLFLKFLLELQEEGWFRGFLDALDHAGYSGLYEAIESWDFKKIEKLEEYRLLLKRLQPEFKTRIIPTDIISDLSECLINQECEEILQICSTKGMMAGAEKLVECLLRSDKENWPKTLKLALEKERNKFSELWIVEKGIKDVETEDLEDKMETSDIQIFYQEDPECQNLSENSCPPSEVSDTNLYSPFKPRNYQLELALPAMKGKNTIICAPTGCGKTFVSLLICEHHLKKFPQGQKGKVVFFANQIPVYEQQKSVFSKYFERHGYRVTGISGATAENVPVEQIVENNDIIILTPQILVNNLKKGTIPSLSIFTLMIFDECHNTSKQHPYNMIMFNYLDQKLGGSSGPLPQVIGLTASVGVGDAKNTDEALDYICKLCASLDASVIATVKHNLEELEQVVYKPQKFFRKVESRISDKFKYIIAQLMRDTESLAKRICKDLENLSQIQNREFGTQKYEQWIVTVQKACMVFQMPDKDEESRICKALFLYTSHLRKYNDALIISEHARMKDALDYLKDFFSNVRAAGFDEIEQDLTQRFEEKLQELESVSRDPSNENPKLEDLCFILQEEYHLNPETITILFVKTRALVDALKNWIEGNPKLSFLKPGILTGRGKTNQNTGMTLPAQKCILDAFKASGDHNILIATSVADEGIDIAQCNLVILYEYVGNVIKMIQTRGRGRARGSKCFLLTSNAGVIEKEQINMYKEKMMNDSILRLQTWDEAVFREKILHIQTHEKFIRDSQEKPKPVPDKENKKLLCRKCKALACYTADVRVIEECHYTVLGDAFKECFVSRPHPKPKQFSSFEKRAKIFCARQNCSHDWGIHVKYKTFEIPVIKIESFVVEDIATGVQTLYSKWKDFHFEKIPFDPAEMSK

By UniProt entry, the sequences of proteins in these tests, tags left out.
UniProt Q7Z434: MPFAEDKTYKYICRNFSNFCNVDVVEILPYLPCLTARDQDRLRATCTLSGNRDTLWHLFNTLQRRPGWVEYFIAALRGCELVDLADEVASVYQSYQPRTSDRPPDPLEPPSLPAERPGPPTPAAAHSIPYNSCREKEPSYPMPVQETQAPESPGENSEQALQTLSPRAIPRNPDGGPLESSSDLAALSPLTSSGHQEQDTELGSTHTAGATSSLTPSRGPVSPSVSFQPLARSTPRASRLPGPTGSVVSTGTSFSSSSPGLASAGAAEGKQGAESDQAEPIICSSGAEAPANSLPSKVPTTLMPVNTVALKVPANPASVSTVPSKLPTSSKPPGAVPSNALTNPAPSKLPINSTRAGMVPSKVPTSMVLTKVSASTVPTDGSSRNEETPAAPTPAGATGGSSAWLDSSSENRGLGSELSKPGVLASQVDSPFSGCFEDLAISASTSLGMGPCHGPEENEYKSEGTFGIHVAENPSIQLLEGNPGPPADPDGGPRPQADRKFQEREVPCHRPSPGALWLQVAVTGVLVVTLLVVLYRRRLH
UniProt K9N7A1: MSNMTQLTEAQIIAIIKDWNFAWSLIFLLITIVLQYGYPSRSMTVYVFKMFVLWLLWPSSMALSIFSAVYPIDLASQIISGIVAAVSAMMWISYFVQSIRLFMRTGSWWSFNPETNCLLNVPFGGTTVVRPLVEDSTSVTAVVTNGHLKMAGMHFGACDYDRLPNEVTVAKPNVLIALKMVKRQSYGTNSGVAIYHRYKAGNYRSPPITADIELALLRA

[2] = target: FLAG-tagged MAVS (wild type) (UniProt Q7Z434); assay: co-IP

In the case of “MERS-CoV M protein, V5-tagged (from UniProt K9N7A1 1-219)”, the binding [1] is reported as “no binding” and the binding [2] is reported as “no binding”.

Source: PMC4855074
